Primary screen of a compound library

The values are deposited in ChEMBL (CHEMBL3988442, “University of Dundee, Small-Polar-MMV Screening Library” (2021)).

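Whole-parasite assay of Trypanosoma brucei over 72 hours; the read-out is not stated. Concentration: 10 µM. Direction is inferred from retests: higher values go with stronger inhibition. Values scatter widely below zero; nearly all retest evidence comes from the higher of the two concentrations used. Of about 2,700 compounds tested this way, about 14 (0.51%) reached 50% or more in at least one test.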

Values are the deposited “Percent Effect”, in %. The controls that fix the scale are not given in the record; negative values are as filed. Compounds were drawn at random from those tested, without regard to their results.

Compound | Percent Effect
O=C(CCCNc1ncccn1)N1CCCC(n2ccnc2)C1 (centres undefined) | -18.57
COCCCN1CCCC1c1noc(C2CC2)n1 (centres undefined) | -52.37
O=C(Nc1ncn(CC(=O)N2CCCCCC2)n1)C1CCCC1 | -21.63
CNc1nc(CNC(=O)Nc2ccc(SC)c(F)c2)cs1 | -31.07
COc1ccc(CC(=O)N2CCCCC2Cn2cccn2)cc1 (centres undefined) | -17.2
COc1ccccc1CC(=O)N1CCC(NCc2ccncc2)CC1 | -45.25
Cc1cc(C(=O)N2CCN(Cc3ccsc3)CC2)n(C)n1 | -20.57
Cc1nn(C)c(N(C)C)c1CNCc1ccccc1Cn1cccn1 | -22.22
CN(Cc1ccsc1)C(=O)c1cccc(S(=O)(=O)NCC2CCCO2)c1 (centres undefined) | -19.24
CC(C)(C)c1cc(NC(=O)CN2CCC(N3CCNC3=O)CC2)on1 | -40.72
CCN1CCN(C2CCN(Cc3nnc(C(C)C)o3)CC2)C1=O | -58.86

Repeated from the top, 2 entries:

Result for O=C(CCCNc1ncccn1)N1CCCC(n2ccnc2)C1 (centres undefined) was -18.57%.
Result for COCCCN1CCCC1c1noc(C2CC2)n1 (centres undefined) was -52.37%.